From US20150126710A1 (APOGENIX, published 2015)
These are yes or no findings as the source states them, for the method shown. Some binding calls cover weakened binding; strength is not graded here. For part of these data: Sequences can lack the tags named with a protein.

Protein sequences, listed by entry. Tags and fused reporters are not part of them. Residues count along the entry.
UniProt O14763, residues 54-182: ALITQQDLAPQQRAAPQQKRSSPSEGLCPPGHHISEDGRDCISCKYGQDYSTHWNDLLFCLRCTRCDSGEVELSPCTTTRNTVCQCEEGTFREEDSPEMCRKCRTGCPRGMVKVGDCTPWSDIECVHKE
UniProt Q92956, residues 37-202: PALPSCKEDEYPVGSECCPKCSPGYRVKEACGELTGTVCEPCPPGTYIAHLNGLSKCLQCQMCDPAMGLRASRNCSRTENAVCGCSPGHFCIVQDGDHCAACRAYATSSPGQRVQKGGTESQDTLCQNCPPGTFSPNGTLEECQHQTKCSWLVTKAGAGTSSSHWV

Tests used:
TRAILR2mut-ASPD (human) [1] = experiment: Streptactin-ELISA, 1 microgram/ml purified trimeric ligand immobilized via Strep-tag II, TRAIL-Receptor 2-Fc (FIG. 15B)
TRAILR1mut-ASPD (human) [2] = experiment: Streptactin-ELISA, supernatant immobilized, varying concentrations of TRAIL-Receptor 2-Fc (FIG. 14D)
TRAIL-ASPD (human) [3] = experiment: as above
TRAILR2mut-ASPD (human) [4] = experiment: as above
TRAIL-D-CCSPD (human) = experiment: Streptactin-ELISA, supernatant immobilized, constant concentration of TRAIL-Receptor 2-Fc (FIG. 14B)
TRAILR1mut-ASPD (human) [5] = experiment: as above
[6] = target: TRAILR2mut-A-CCSPD (human); experiment: as above
TRAIL-A-CCSPD (human) = experiment: as above
[7] = target: TRAILR2mut-D-CCSPD (human); experiment: as above
[8] = target: TRAILR1mut-A-CCSPD (human); experiment: as above
TRAILR1mut-D-SPD (human) [9] = experiment: as above
TRAIL-D-SPD (human) = experiment: as above
TRAIL-ASPD (human) [10] = experiment: as above
[11] = target: TRAILR1mut-D-CCSPD (human); experiment: as above
TRAILR2mut-ASPD (human) [12] = experiment: as above
TRAILR2mut-D-SPD (human) = experiment: as above
LIGHT-ASPD (human) [13] = experiment: Streptactin-ELISA, LIGHT-ASPD (0-10 microgram/ml) immobilized via Strep-tag II, 100 ng/ml HVEM-Fc
LIGHT-ASPD (human) [14] = experiment: Streptactin-ELISA (legend of FIG. 6)
TRAILR1mut-ASPD (human) [15] = experiment: Streptactin-ELISA, supernatant immobilized, varying concentrations of TRAIL-Receptor 1-Fc (FIG. 14C)
TRAIL-ASPD (human) [16] = experiment: as above
TRAILR1mut-ASPD (human) [17] = experiment: Streptactin-ELISA, 1 microgram/ml purified trimeric ligand immobilized via Strep-tag II, TRAIL-Receptor 1-Fc (FIG. 15A)
TRAILR1mut-ASPD (human) [18] = experiment: Streptactin-ELISA, supernatant immobilized, constant concentration of TRAIL-Receptor 1-Fc (FIG. 14A)
[19] = target: TRAILR1mut-A-CCSPD (human); experiment: as above
TRAILR1mut-D-SPD (human) [20] = experiment: as above
[21] = target: TRAILR1mut-D-CCSPD (human); experiment: as above
APRIL-ASPD (human) [22] = experiment: Streptactin-ELISA, APRIL-ASPD from HEK293 supernatant immobilized, varying concentrations of TACI-Fc, anti-human Fc peroxidase
APRIL-ASPD (human) [23] = experiment: Streptactin-ELISA (legend of FIG. 34)

Measured: binding

TRAIL-Receptor 2-Fc (from UniProt O14763 54-182) (Fc fusion)
not listed: LIGHT-ASPD (human) [13] | LIGHT-ASPD (human) [14] | TRAILR1mut-ASPD (human) [15] | TRAIL-ASPD (human) [16] | TRAILR1mut-ASPD (human) [17] | TRAILR1mut-ASPD (human) [18] | [19] | TRAILR1mut-D-SPD (human) [20] | [21] | APRIL-ASPD (human) [22] | APRIL-ASPD (human) [23]
binds: all other assays above

HVEM-Fc (from UniProt Q92956 37-202) (Fc fusion)
binds: LIGHT-ASPD (human) [13] | LIGHT-ASPD (human) [14]

B1: TRAIL-Receptor 1-Fc (Fc fusion, UniProt O00220 109-239, looked up, not shown: a dimerising Fc or GST)
chain: ATIKLHDQSIGTQQWEHSPLGELCPPGSHRSEHPGACNRCTEGVGYTNASNNLFACLPCTACKSDEEERSPCTTTRNTACQCKPGTFRNDNSAEMCRKCSRGCPRGMVKVKDCTPWSDIECVHKESGNGHN
binds: TRAILR1mut-ASPD (human) [15] | TRAIL-ASPD (human) [16] | TRAILR1mut-ASPD (human) [17] | TRAILR1mut-ASPD (human) [18] | [19] | TRAILR1mut-D-SPD (human) [20] | [21]

B2: TACI-Fc (Fc fusion, UniProt O14836 2-166, looked up, not shown: a dimerising Fc or GST)
chain: SGLGRSRRGGRSRVDQEERFPQGLWTGVAMRSCPEEQYWDPLLGTCMSCKTICNHQSQRTCAAFCRSLSCRKEQGKFYDHLLRDCISCASICGQHPKQCAYFCENKLRSPVNLPPELRRQRSGEVENNSDNSGRYQGLEHRGSEASPALPGLKLSADQVALVYST
binds: APRIL-ASPD (human) [22] | APRIL-ASPD (human) [23]
